{"source": "patent US8709764B2", "about": "“Enzymatic demethylation of flavonoids” (Universiteit Gent, priority 2005, dated 2014)", "system": "human fecal cultures", "assay": "Incubation of IX with human fecal cultures (E-L; 51 fecal samples) for 3 days", "type": "in vitro ADME", "settings": "25 mg/l IX", "experimental": "Fecal slurries of 20% (w/v) fresh fecal samples were prepared by homogenizing the feces with phosphate buffered saline (0.1 M, pH 7) containing 1 g/l sodiumthioglycolate as reducing agent. The particulate material was removed by centrifugation (1 min, 500×g). The supernatant is hereafter called “the culture”.\nBut not all cultures were able to perform this reaction. Therefore, the remaining cultures E-L (10% (v/v)) were incubated for 3 days in Brain Heart Infusion broth (with 0.5 g/l cystein-HCl) under anaerobic conditions with 25 mg/l IX (FIG. 4).\nTo further investigate these inter-individual differences, a total of 51 fecal samples were incubated for 3 days in Brain Heart Infusion broth (with 0.5 g/l cystein-HCl) under anaerobic conditions, containing 25 mg/l IX (FIG. 5). The results are presented as % 8-PN production relative to the incubated IX concentration and samples were ordered by increasing 8-PN production capacity.", "data": [{"molecule": "COc1cc(O)c(CC=C(C)C)c2c1C(=O)C[C@@H](c1ccc(O)cc1)O2", "note": "[IX, 5-O-methyl-8-prenylnaringenin]", "values": [{"measurement": "Share of individuals that are high 8-PN producers (group c)", "value": 16, "unit": "%"}, {"measurement": "Share of individuals that are moderate 8-PN producers (group b)", "value": 22, "unit": "%"}, {"measurement": "Share of individuals that are slow 8-PN producers (group a)", "value": 63, "unit": "%"}]}]}
